These are yes or no findings as the source states them, for the method shown. Binding seen in cells or lysates may run through a third protein. Some entries that bind do so weakly or less than the wild type. Where a sequence is shown, tags or fusion partners need not be part of it.
Target: T1, GFP:Orco (odour-receptor coreceptor, GFP-tagged) (Drosophila melanogaster) (UniProt Q9VNB5)
T1 sequence: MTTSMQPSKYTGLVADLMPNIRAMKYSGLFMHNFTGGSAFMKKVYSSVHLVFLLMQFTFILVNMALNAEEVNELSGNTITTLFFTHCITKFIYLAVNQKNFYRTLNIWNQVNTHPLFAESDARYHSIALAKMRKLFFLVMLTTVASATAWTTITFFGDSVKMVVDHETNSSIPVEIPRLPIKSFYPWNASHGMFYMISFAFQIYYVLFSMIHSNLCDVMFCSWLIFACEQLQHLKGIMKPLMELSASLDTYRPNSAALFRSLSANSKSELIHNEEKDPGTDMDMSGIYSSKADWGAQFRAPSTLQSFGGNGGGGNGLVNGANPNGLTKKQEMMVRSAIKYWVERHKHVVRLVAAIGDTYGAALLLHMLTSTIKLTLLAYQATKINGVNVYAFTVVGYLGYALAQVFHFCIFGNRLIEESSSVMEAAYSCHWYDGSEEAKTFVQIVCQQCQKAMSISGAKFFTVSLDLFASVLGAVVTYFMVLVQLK
Experiment: co-IP; agarose beads conjugated with GFP-nanobody (chromotek); head extracts of chaGal4>UAS-GFP:Orco adults; western blot

binding: binds
B1: KLP68D (kinesin-2β motor subunit) (protein, UniProt P46867 1-784)
chain: MSAKSRRPGTGSSQTPNECVQVVVRCRPMSNRERSERSPEVVNVYPNRGVVELQNVVDGNKEQRKVFTYDAAYDASATQTTLYHEVVFPLVSSVLEGFNGCIFAYGQTGTGKTFTMEGVRGNDELMGIIPRTFEQIWLHINRTENFQFLVDVSYLEIYMEELRDLLKPNSKHLEVRERGSGVYVPNLHAINCKSVEDMIKVMQVGNKNRTVGFTNMNEHSSRSHAIFMIKIEMCDTETNTIKVGKLNLIDLAGSERQSKTGASAERLKEASKINLALSSLGNVISALAESSPHVPYRDSKLTRLLQDSLGGNSKTIMIANIGPSNYNYNETLTTLRYASRAKSIQNQPIKNEDPQDAKLKEYQEEIERLKRLIGPQQQQRSEKQVTAKKQRVKKPKKETVTKEMSDSLQVSTIEQPVEDDSDPEGAESESDKENEAEVAKSNEELERERVENSKLAAKLAELEGQLVRGGKNLLDTYSERQIELEKKLVEIAERKKREIEIQQQLELQEETTLEIRERNVSLEQEVELKKRKLSKCYAKYLALQQELNDCKSDHNQDLRELEMAQNELVKELKRQLLIIDNFVPIEVKQRLYTQAKYDEEQEEWKFSSMSLPTPPGGDGKFSSKRPVSHPQRRRPTSEYALQEAKSNSPSSLRFKSENIVNYELEMPCRTTQEYRTPKVSASLQAVLAQAMQTGGDDIDIVDSHTNSLRSRLENIINANANGGAGPGAGVAVGSSIPNVRNIKSSRGLPSAASNLDSNRRPPTGRLPAKKPASAYPKARGLVNK

From PMC8407544
